Reference: PubChem BioAssay AID540275 (National Center for Advancing Translational Sciences (NCATS), 2011)
Screen size: about 320,000 compounds; about 620 (0.19%) were called active. Inconclusive means that the source gave no clear call. Such entries were picked first, then a sample of the others. No stated cut-off is given here; in the data, active means activation above about 80%; inconclusive means between about 30% and that limit; inactive means weaker than that.

Protein sequences, listed by entry. Tags and fused reporters are not part of them.
UniProt Q8NER1, whole entry, looked up: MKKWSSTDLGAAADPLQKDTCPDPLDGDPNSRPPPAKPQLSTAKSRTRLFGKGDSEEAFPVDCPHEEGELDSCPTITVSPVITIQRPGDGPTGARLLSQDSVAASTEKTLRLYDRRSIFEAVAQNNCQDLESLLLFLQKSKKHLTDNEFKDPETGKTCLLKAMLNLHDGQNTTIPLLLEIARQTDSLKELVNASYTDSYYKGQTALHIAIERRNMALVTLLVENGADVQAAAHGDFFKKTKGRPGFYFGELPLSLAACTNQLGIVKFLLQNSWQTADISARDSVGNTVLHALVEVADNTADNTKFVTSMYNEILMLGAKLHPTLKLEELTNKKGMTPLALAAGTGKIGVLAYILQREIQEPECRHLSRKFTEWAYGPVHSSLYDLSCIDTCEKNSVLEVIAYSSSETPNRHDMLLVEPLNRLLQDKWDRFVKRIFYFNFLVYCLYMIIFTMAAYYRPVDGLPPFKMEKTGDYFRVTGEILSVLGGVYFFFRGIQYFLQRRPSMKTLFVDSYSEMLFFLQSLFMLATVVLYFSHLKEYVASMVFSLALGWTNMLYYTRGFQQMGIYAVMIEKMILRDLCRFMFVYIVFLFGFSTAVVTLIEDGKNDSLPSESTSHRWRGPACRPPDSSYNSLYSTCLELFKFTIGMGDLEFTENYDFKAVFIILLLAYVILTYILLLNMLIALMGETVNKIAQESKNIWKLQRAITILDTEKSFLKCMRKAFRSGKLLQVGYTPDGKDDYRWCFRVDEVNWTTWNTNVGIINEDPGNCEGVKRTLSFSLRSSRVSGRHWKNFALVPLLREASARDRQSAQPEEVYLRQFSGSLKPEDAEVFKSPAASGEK

biological target: Transient receptor potential cation channel subfamily V member 1 (Homo sapiens) (UniProt Q8NER1); assay: HTS Assay for Compounds that Act as Agonists of the Vanilloid Receptor 1; conditions: TRPV1-expressing cells, Fluo-8 calcium influx, agonist mode; at 8.33 µM, hits give high values; further: 0% is about no effect
Procedure, shortened: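 Cells expressing TRPV1 were dye-loaded with Fluo-8 and read kinetically: 10 s baseline, 3 min after compound (agonist portion), then 2 min after EC20 capsaicin (allosteric enhancer portion). Calcium-bound dye fluorescence at 480/520 nm.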

| Structure (SMILES) | activation |
| --- | --- |
| O=C(NNC(=O)c1ccccc1OCc1ccccc1)c1ccccc1F | inconclusive: 49.4% |
| CCCCNC(=O)Nc1c(C(=O)OC)[nH]c2ccc(C)cc12 | inconclusive: 34.8% |
| O=C(N/C=C\c1ccccc1)NCc1ccc(Cl)cc1 | inactive: 6.67% |
| COC(=O)c1sccc1NC(=O)c1ccc(OC)cc1OC | inactive: -0.548% |
| COc1ccc(C(=O)NCC(O)COc2ccc(C(C)(C)C)cc2)cc1[N+](=O)[O-] (stereo not drawn) | inactive: 18.5% |
| O=C(/C=C/c1ccc(O)cc1)c1ccc(O)cc1O | inactive: -0.488% |
| O=C(NC(=S)Nc1ccc(N2CCCCC2)cc1)c1ccco1 | inactive: 17.4% |
| Cc1ccccc1CS(=O)(=O)CCC(=O)NCCN1CCN(c2cccc(Cl)c2)CC1 | inactive: 2.56% |
| C/C(=N\NC(=O)c1nnn(-c2nonc2N)c1CN(C)c1ccccc1)c1ccc(O)cc1 | inactive: 0.81% |
| Cc1cccc(C(=O)NCC(=O)N2CCN(S(=O)(=O)c3ccccc3)CC2)c1 | inactive: -2.07% |
| Cc1ccc(C(=O)NNC(=O)c2ccccc2OCc2c(C)noc2C)cc1 | inconclusive: 54.6% |
| C=CCN(CC=C)S(=O)(=O)c1ccc(NC(=S)NC(=O)/C=C/c2ccccc2)cc1 | inactive: -1.43% |
| O=C(CCS(=O)(=O)c1ccc(Cl)cc1)Nc1ccc(F)cc1 | inconclusive: 43.4% |
| O=C(COC(=O)c1cc(-c2ccc(Cl)s2)nc2ccccc12)NCc1ccco1 | inconclusive: 32.5% |
| O=C(CCN1C(=O)c2ccccc2C1=O)Nc1cccc(O)c1 | inconclusive: 35.1% |
| CC(=O)c1c(C)[nH]c(C(=O)NCCc2ccccc2)c1C | inconclusive: 32.4% |
| Cc1ccccc1-c1nnc(-c2ccccc2)o1 | inconclusive: 42.4% |
| Cc1ccccc1OCCn1c(C)nc2ccccc21 | inactive: 9.51% |
| COCc1ccc(C(=O)N2CCCC(Nc3ccc(C(C)C)cc3)C2)s1 (stereo not drawn) | inconclusive: 68.8% |
| CCCCCCC(=O)Nc1ccc(Br)cn1 | inconclusive: 36.5% |
| CCCCCCCCNC(=O)c1cnsn1 | inconclusive: 38.7% |
| Cc1ccc(NC(=O)CSc2ncn(-c3ccccc3)n2)cc1C | inconclusive: 30.7% |
| Cc1noc2ncnc(Sc3ccc(Cl)cc3)c12 | inactive: 0.142% |
| C(=N\Nc1ncnc2ccccc12)/c1ccccc1 | inconclusive: 50.4% |

| Structure (SMILES) | activation |
| --- | --- |
| O=S1(=O)CC/C(=N\Nc2ccc(F)cc2)c2ccsc21 | inconclusive: 38.7% |
| CCCC(=O)Nc1nc(C)c(C(C)=O)s1 | inactive: -2.36% |
| C=C(C)c1cccc(C(C)(C)NC(=O)N2CCCC2)c1 | inactive: 0.206% |
| COc1ccc(CNC(=O)c2ccc(C(C)(C)C)cc2)cc1 | inconclusive: 52.8% |
| CC(NC(=O)CCSc1nc(-c2ccc3c(c2)OCO3)cc(C(F)(F)F)n1)c1ccccc1 (stereo not drawn) | inconclusive: 33.6% |
| COc1ccc2cc(C(=O)N3CCN(Cc4ccc5c(c4)OCO5)CC3)[nH]c2c1 | inactive: 12.8% |
| COC(=O)c1oc2ccccc2c1NC(=O)/C=C/C(=O)O | inactive: -2.13% |
| NNC(=O)CNC(=O)c1cccc(Br)c1 | inactive: -3.04% |
| NC(=O)c1ccc(NC(=O)COC(=O)c2c3c(nc4ccccc24)/C(=C\c2cccs2)CCC3)cc1 | inconclusive: 40.6% |
| Cc1ccc(NC(=O)NC2CCCCCCC2)cc1C | inconclusive: 45.6% |
| O=C(Nc1ccncc1)C1CCN(S(=O)(=O)c2cccs2)CC1 | inconclusive: 44.4% |
| COc1ccc(OC)c(/C=C2/Sc3ccccc3C2=O)c1 | inconclusive: 33.7% |
| Cc1cccc(CS(=O)(=O)Cc2ccc(C(=O)NCCc3ccccc3)o2)c1 | inconclusive: 37.1% |
| Cc1cccc(Nc2nc(N)nc(CSC(=S)N3CCOCC3)n2)c1 | inconclusive: 57.1% |
| CCOC(=O)N1CCN(C(=O)CSc2ccc3nnc(CCNC(=O)c4ccccc4)n3n2)CC1 | inactive: 2.56% |
| O=C(Nc1ccc2c(c1)OCO2)c1noc2c1CCCC2 | inconclusive: 37.8% |
| c1ccc(Nc2ncnc3sc4c(c23)CCC4)cc1 | inconclusive: 57.9% |
| Cc1cccc(N2C(=O)CC(Sc3ncn[nH]3)C2=O)c1 (stereo not drawn) | inactive: 1.53% |
| CCC(CC)C(=O)Nc1ccncc1 | inactive: -1.33% |
| CCCNC(=O)C(Cc1ccccc1C)NC(=O)c1ccc(C(F)(F)F)cc1 (stereo not drawn) | inconclusive: 31.1% |
| CCOc1ccc(CC(=O)Nc2sc(Cc3ccccc3)c(C)c2C(N)=O)cc1OCC | inactive: -1.12% |
| Cc1ccc(C)c(C(=O)Nc2c(C(N)=O)oc3ccccc23)c1 | inconclusive: 34.5% |
| CCOc1ccc(C(=O)Nc2cccc(C)n2)cc1 | inconclusive: 49.8% |
| Cc1cccc(-n2ncc3c(N4CCC(C)CC4)ncnc32)c1 | inconclusive: 33.2% |

| Structure (SMILES) | activation |
| --- | --- |
| CC(C)Oc1ccc(S(=O)(=O)N2CCOCC2)cc1NC(=O)C1COc2ccccc2O1 (stereo not drawn) | inactive: -4.68% |
| CCN(CC(=O)Nc1c(F)cccc1F)C(=O)c1ccc2c(=O)n3c(nc2c1)CCC3 | inactive: -1.51% |
| CCc1cc(=O)oc2cc(C)cc(OCC(=O)N3CCC(C(=O)NC(C)C)(c4ccccc4)CC3)c12 | inactive: -4.27% |
| COc1ccc(Cn2c(CCC(=O)Nc3ccc(CC#N)cc3)nc3cccnc32)cc1 | inconclusive: 67.8% |
| O=C(N/N=C/c1cccnc1)c1ccc2ccccc2c1O | inconclusive: 66.2% |
| O=C(CN1CCN(Cc2ccccc2)CC1)N/N=C/C=C/c1ccccc1[N+](=O)[O-] | inactive: -0.0258% |
| O=C(Cc1ccccc1F)Nc1ccc2c(c1)CCC2 | inconclusive: 49.6% |
| C=CCN(c1ccccc1)S(=O)(=O)c1ccc(Cl)c(C(=O)OCC(=O)c2[nH]c(C)c(C(C)=O)c2C)c1 | inconclusive: 36% |
| CC(C)Cc1ccc(C(=O)Nc2ccc(Cc3ccncc3)cc2)o1 | inconclusive: 67.8% |
| CCc1ccc(OCC(=O)N2CCc3ccccc32)cc1 | inconclusive: 63.5% |
| O=C(CCc1ccccc1)NNC(=O)COc1ccccc1 | inconclusive: 38.1% |
| Cc1ccc2c(COC(=O)c3ccccc3Br)cc(=O)oc2c1 | inconclusive: 50.5% |
| O=C(CN1C2=NCCCN2c2ccccc21)c1ccc(Br)s1 | inactive: 3.29% |
| O=C(COc1ccc2ccc(=O)oc2c1)N1CCN(C(=O)C2COc3ccccc3O2)CC1 (stereo not drawn) | inactive: 0.699% |
| CCOc1ccc(/C=C(\C#N)C(=O)c2c(C)[nH]c3ccccc23)cc1OC | inactive: -1.4% |
| O=C1C2C3C=CC(C4CC34)C2C(=O)N1Cc1ccccc1 (stereo not drawn) | inactive: 9.71% |
| O=C(NCc1ccccn1)c1cc(-c2ccccc2Cl)nc2ccccc12 | inactive: 7.41% |
| COc1ccccc1CN1C(=O)CN(C2CCCC2)C(=O)C1c1ccc(F)cc1 (stereo not drawn) | inconclusive: 32.1% |
| O=C(c1cc(COc2c(F)cccc2F)on1)N1CCC(c2ccccc2F)C1 (stereo not drawn) | inconclusive: 36.2% |
| CC1(C)CC(=O)c2cnc(NC(=O)Cc3ccc(Cl)cc3)nc2C1 | inconclusive: 43.6% |
| COc1ccc(CNC(=O)C2(c3ccc(Cl)cc3)CC2)cc1 | inconclusive: 32% |
| COc1ccc(CCNC(=O)c2ccc(Br)cc2)cc1 | inconclusive: 39.3% |
| CCCC(=O)Nc1cccc(Oc2ccc3c(c2)C(=O)NC3=O)c1 | inactive: -2.53% |
| Cc1cc(C)cc(NC(=S)N2CCN(Cc3ccccc3)CC2)c1 | inactive: 17.4% |

| Structure (SMILES) | activation |
| --- | --- |
| C=CCC(CC)C(=O)NC(=O)N1CCCc2ccccc21 (stereo not drawn) | inactive: -1.22% |
| CCOc1ccc(-c2nnc(-c3cccs3)o2)cc1 | inconclusive: 31.8% |
| CCCNC(=O)c1onc(CSc2ccc(Cl)cc2)c1C(=O)NCC1CC1 | inconclusive: 37.7% |
| Cc1nnc(SCC(=O)N2CCC(c3noc4ccc(F)cc34)CC2)s1 | inconclusive: 36.9% |
| Oc1ccc(/C=N/Nc2nc(-c3ccc(Cl)cc3)cc(C(F)(F)F)n2)cc1 | inactive: 25.4% |
| COc1cccc(CN(C)Cc2cc(=O)oc3c(C)c(C)ccc23)c1 | inconclusive: 58% |
| O=C(c1ccc(-c2ccccc2Cl)o1)N1CCN(S(=O)(=O)c2cccs2)CC1 | inconclusive: 32.1% |
| Cc1cccc(OCC(=O)N2CCc3ccccc3C2)c1 | inconclusive: 31.1% |
| O=C(COC(=O)Cc1ccc(F)cc1)Nc1ccc(Cl)cn1 | inconclusive: 34.2% |
| O=C(CCCc1ccccc1)NC12CC3CC(CC(C3)C1)C2 | inconclusive: 49.9% |
| O=C(CNc1cc(S(=O)(=O)N2CCCC2)ccc1OCC(F)(F)F)Nc1cccc(C(F)(F)F)c1 | inconclusive: 58.9% |
| O=C(Nc1sc2c(c1C(=O)NCC1CCCO1)CCCC2)c1cccs1 (stereo not drawn) | inconclusive: 42% |
| Cc1ccc(NC(=O)COc2ccc(-n3cnnn3)cc2)cc1C | inconclusive: 57.9% |
| COc1ccc2cc(-c3ccsc3)ncc2c1 | inactive: 9.19% |
| CCN(CC)S(=O)(=O)c1ccc(NC(=O)Cn2c(=O)sc3ccccc32)cc1 | inconclusive: 36.7% |
| CCCN(CCC)S(=O)(=O)c1ccc(C(=O)Nc2cccnc2)cc1 | inconclusive: 65.5% |
| O=S1(=O)CCC(NC(=S)Nc2ccc3ccccc3c2)C1 (stereo not drawn) | inconclusive: 36% |
| CC(=O)c1ccc(OCc2cc(C(=O)N3CCCCC3c3cccnc3)no2)cc1 (stereo not drawn) | inactive: -1.62% |
| O=C(Oc1ccc2c(c1)OCO2)c1cccs1 | inactive: 1.12% |
| CC(C)(C)c1ccc(NC(=O)CC2(C(F)(F)F)OCCO2)cc1 | inconclusive: 57.6% |
| CCc1ccc(CNC(=O)C2CCCN(c3nnc(C)c4c(C)n(-c5ccccc5)nc34)C2)cc1 (stereo not drawn) | inconclusive: 34.6% |

Grouped by structure: the entries above containing a thiophene ring, fused or not

| Structure (SMILES) | activation |
| --- | --- |
| COC(=O)c1sccc1NC(=O)c1ccc(OC)cc1OC | inactive: -0.548% |
| O=C(COC(=O)c1cc(-c2ccc(Cl)s2)nc2ccccc12)NCc1ccco1 | inconclusive: 32.5% |
| COCc1ccc(C(=O)N2CCCC(Nc3ccc(C(C)C)cc3)C2)s1 (stereo not drawn) | inconclusive: 68.8% |
| O=S1(=O)CC/C(=N\Nc2ccc(F)cc2)c2ccsc21 | inconclusive: 38.7% |
| NC(=O)c1ccc(NC(=O)COC(=O)c2c3c(nc4ccccc24)/C(=C\c2cccs2)CCC3)cc1 | inconclusive: 40.6% |
| O=C(Nc1ccncc1)C1CCN(S(=O)(=O)c2cccs2)CC1 | inconclusive: 44.4% |
| c1ccc(Nc2ncnc3sc4c(c23)CCC4)cc1 | inconclusive: 57.9% |
| CCOc1ccc(CC(=O)Nc2sc(Cc3ccccc3)c(C)c2C(N)=O)cc1OCC | inactive: -1.12% |
| O=C(CN1C2=NCCCN2c2ccccc21)c1ccc(Br)s1 | inactive: 3.29% |
| CCOc1ccc(-c2nnc(-c3cccs3)o2)cc1 | inconclusive: 31.8% |
| O=C(c1ccc(-c2ccccc2Cl)o1)N1CCN(S(=O)(=O)c2cccs2)CC1 | inconclusive: 32.1% |
| O=C(Nc1sc2c(c1C(=O)NCC1CCCO1)CCCC2)c1cccs1 (stereo not drawn) | inconclusive: 42% |
| COc1ccc2cc(-c3ccsc3)ncc2c1 | inactive: 9.19% |
| O=C(Oc1ccc2c(c1)OCO2)c1cccs1 | inactive: 1.12% |

Grouped by structure, the compounds so far with a cyano group (2)

| Structure (SMILES) | activation |
| --- | --- |
| COc1ccc(Cn2c(CCC(=O)Nc3ccc(CC#N)cc3)nc3cccnc32)cc1 | inconclusive: 67.8% |
| CCOc1ccc(/C=C(\C#N)C(=O)c2c(C)[nH]c3ccccc23)cc1OC | inactive: -1.4% |
